# Measured values taken from patent US20050031717A1, “Salt taste modification” (priority 2003, published 2005).
# Tested on: amiloride-insensitive salt taste receptor
# Test: Rat chorda tympani (CT) taste nerve recordings
# Format: in vivo
# Settings: 100 mM NaCl+5 μM Bz
# Excerpt: Chorda tympani nerve recordings. Recordings from the chorda tympani (CT) taste nerves of anesthetized rats were made. Recordings were made with various salt stimuli and with the taste receptive field under current or voltage clamp in order to observe the effect, if any, of modulating the driving force for ions through putative […] apical membrane ion channels involved in salt taste reception.
structure (smiles),measurement,value
"CCCCCCCCCCCCCCCC[n+]1ccccc1 [CPC, cetylpyridinium chloride]",concentration at which the Bz-insensitive NaCl chorda tympani response decreased to rinse level,2 mM
same,concentration of maximum enhancement of the Bz-insensitive NaCl chorda tympani response,around 250 μM
